{"source": "PubChem BioAssay AID602203 – INSERM | 2012", "assay": "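Genes whose knock-down alters cisplatin killing of lung cancer cells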 (follow-up of hits)", "cells": "human A549 lung cancer cells", "knock-down reagent": "siRNA pair against human genes", "conditions": "cisplatin at a dose killing half of control-siRNA cells, given 48 h after transfection", "read-out": "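Cisplatin at a dose killing 50% of control cells, 48 h post-transfection; each siRNA +1 protective, -1 sensitizing, 0 if toxic (LDH) or antiproliferative (WST-1); per-gene sum and mean death change versus control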", "reading the numbers": "summed siRNA score for cisplatin death: higher = more siRNAs reduced cisplatin-induced cell death; change in cisplatin death versus control: higher = fewer cells died than in control", "units": "change in cisplatin death versus control in percentage points", "hit rule": "In these data the active calls have summed siRNA score for cisplatin death at about -3 or lower, or at about 3 or higher", "note": "Here is one part, drawn at random, of 999 reagents. 85 of them (8.5%) were called active. 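Unclear how single-siRNA scores of -1, 0 or +1 give the printed -4 to 4 range; calls lie near -3 or 3 and beyond.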 The record does not give: the amount of reagent, the time to read-out, the dose of the treatment."}
{"gene knocked down": "C19orf73", "summed siRNA score for cisplatin death": 1, "call": "inactive"}
{"gene knocked down": "INS", "summed siRNA score for cisplatin death": -1, "call": "inactive"}
{"gene knocked down": "LOC389124", "summed siRNA score for cisplatin death": 0, "call": "inactive"}
{"gene knocked down": "BIRC6", "summed siRNA score for cisplatin death": -2, "call": "inactive"}
{"gene knocked down": "LOC440669", "summed siRNA score for cisplatin death": 2, "call": "inactive"}
{"gene knocked down": "ZNF786", "summed siRNA score for cisplatin death": -1, "call": "inactive"}
{"gene knocked down": "MMP11", "summed siRNA score for cisplatin death": 0, "call": "inactive"}
{"gene knocked down": "MPV17", "summed siRNA score for cisplatin death": -2, "call": "inactive"}
{"gene knocked down": "LOC388297", "summed siRNA score for cisplatin death": 1, "call": "inactive"}
{"gene knocked down": "MUC6", "summed siRNA score for cisplatin death": 0, "call": "inactive"}
{"gene knocked down": "LOC390992", "summed siRNA score for cisplatin death": -2, "call": "inactive"}
{"gene knocked down": "CHAT", "summed siRNA score for cisplatin death": 0, "call": "inactive"}
{"gene knocked down": "FLJ38508", "summed siRNA score for cisplatin death": 1, "call": "inactive"}
{"gene knocked down": "LOC440329", "summed siRNA score for cisplatin death": 2, "call": "inactive"}
{"gene knocked down": "LOC440477", "summed siRNA score for cisplatin death": 1, "call": "inactive"}
{"gene knocked down": "ERMAP", "summed siRNA score for cisplatin death": 1, "call": "inactive"}
{"gene knocked down": "AMPD1", "summed siRNA score for cisplatin death": 2, "call": "inactive"}
{"gene knocked down": "NLRP1", "summed siRNA score for cisplatin death": -3, "change in cisplatin death versus control": -8.13, "call": "active"}
{"gene knocked down": "ZRANB3", "summed siRNA score for cisplatin death": 1, "call": "inactive"}
{"gene knocked down": "DUSP8", "summed siRNA score for cisplatin death": 1, "call": "inactive"}
{"gene knocked down": "LOC440621", "summed siRNA score for cisplatin death": 0, "call": "inactive"}
{"gene knocked down": "LPL", "summed siRNA score for cisplatin death": 0, "call": "inactive"}
{"gene knocked down": "MASP1", "summed siRNA score for cisplatin death": -1, "call": "inactive"}
{"gene knocked down": "PF4", "summed siRNA score for cisplatin death": 1, "call": "inactive"}
{"gene knocked down": "BMP7", "summed siRNA score for cisplatin death": -4, "change in cisplatin death versus control": -9.13, "call": "active"}
{"gene knocked down": "OR10A2", "summed siRNA score for cisplatin death": -1, "call": "inactive"}
{"gene knocked down": "DHX58", "summed siRNA score for cisplatin death": 0, "call": "inactive"}
{"gene knocked down": "ROBO3", "summed siRNA score for cisplatin death": 1, "call": "inactive"}
{"gene knocked down": "LOC391426", "summed siRNA score for cisplatin death": 2, "call": "inactive"}
{"gene knocked down": "IMPACT", "summed siRNA score for cisplatin death": -2, "call": "inactive"}
{"gene knocked down": "ITGA7", "summed siRNA score for cisplatin death": -1, "call": "inactive"}
{"gene knocked down": "SPSB3", "summed siRNA score for cisplatin death": 1, "call": "inactive"}
{"gene knocked down": "OR10R2", "summed siRNA score for cisplatin death": 2, "call": "inactive"}
{"gene knocked down": "RRAD", "summed siRNA score for cisplatin death": -3, "change in cisplatin death versus control": -11, "call": "active"}
{"gene knocked down": "FBXW11", "summed siRNA score for cisplatin death": 1, "call": "inactive"}
{"gene knocked down": "LOC151320", "summed siRNA score for cisplatin death": -1, "call": "inactive"}
{"gene knocked down": "LRRC57", "summed siRNA score for cisplatin death": 0, "call": "inactive"}
{"gene knocked down": "CDC42BPA", "summed siRNA score for cisplatin death": 0, "call": "inactive"}
{"gene knocked down": "RNF151", "summed siRNA score for cisplatin death": -1, "call": "inactive"}
{"gene knocked down": "CDPF1", "summed siRNA score for cisplatin death": -1, "call": "inactive"}
{"gene knocked down": "PROP1", "summed siRNA score for cisplatin death": 2, "call": "inactive"}
{"gene knocked down": "CRIM1", "summed siRNA score for cisplatin death": -2, "call": "inactive"}
{"gene knocked down": "JPH3", "summed siRNA score for cisplatin death": -1, "call": "inactive"}
{"gene knocked down": "COMMD9", "summed siRNA score for cisplatin death": 3, "change in cisplatin death versus control": 12.6, "call": "active"}
{"gene knocked down": "CDK14", "summed siRNA score for cisplatin death": -1, "call": "inactive"}
{"gene knocked down": "NUDT9", "summed siRNA score for cisplatin death": -2, "call": "inactive"}
{"gene knocked down": "MYORG", "summed siRNA score for cisplatin death": -3, "change in cisplatin death versus control": -4.94, "call": "active"}

An excerpt taken from the entries so far, as a working copy:
{"gene knocked down": "C19orf73", "summed siRNA score for cisplatin death": 1, "call": "inactive"}
{"gene knocked down": "INS", "summed siRNA score for cisplatin death": -1, "call": "inactive"}
{"gene knocked down": "LOC389124", "summed siRNA score for cisplatin death": 0, "call": "inactive"}
{"gene knocked down": "BIRC6", "summed siRNA score for cisplatin death": -2, "call": "inactive"}
{"gene knocked down": "LOC440669", "summed siRNA score for cisplatin death": 2, "call": "inactive"}
{"gene knocked down": "ZNF786", "summed siRNA score for cisplatin death": -1, "call": "inactive"}
